Only a part is listed here, and it is no random draw.
Compound: COC(=O)C#Cc1ccccc1 [methyl 3-phenylpropiolate]
Assay: log2 ratio of iodoacetamide-alkyne labeling of the cysteine site, DMSO over compound (competition); higher = stronger covalent engagement of the cysteine by the compound, active = 1 or more
Details: 500 µM; treatment time 1 h; system: HEK293T cell lysate
Outline: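 HEK293T lysate at 2 mg/mL was treated with vehicle or electrophile (500 µM) for 1 h at ambient temperature, then labelled with iodoacetamide alkyne (1 h), clicked to sCIP-TMT reagents, pooled, digested with trypsin overnight at 37 °C, enriched on streptavidin and eluted with acid. Peptides were analysed by Orbitrap Eclipse LC-MS/MS with FAIMS and quantified in FragPipe, using duplicate channels and three replicates, with cysteines quantified in only one replicate excluded. The log2 competition ratio for each cysteine is the mean control-channel reporter intensity divided by the mean compound-channel reporter intensity.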

By UniProt entry, the sequences of proteins in these tests, tags left out. Where a name states a change or a piece, a line headed by the entry shows the natural chain unless it says otherwise.
UniProt O60287: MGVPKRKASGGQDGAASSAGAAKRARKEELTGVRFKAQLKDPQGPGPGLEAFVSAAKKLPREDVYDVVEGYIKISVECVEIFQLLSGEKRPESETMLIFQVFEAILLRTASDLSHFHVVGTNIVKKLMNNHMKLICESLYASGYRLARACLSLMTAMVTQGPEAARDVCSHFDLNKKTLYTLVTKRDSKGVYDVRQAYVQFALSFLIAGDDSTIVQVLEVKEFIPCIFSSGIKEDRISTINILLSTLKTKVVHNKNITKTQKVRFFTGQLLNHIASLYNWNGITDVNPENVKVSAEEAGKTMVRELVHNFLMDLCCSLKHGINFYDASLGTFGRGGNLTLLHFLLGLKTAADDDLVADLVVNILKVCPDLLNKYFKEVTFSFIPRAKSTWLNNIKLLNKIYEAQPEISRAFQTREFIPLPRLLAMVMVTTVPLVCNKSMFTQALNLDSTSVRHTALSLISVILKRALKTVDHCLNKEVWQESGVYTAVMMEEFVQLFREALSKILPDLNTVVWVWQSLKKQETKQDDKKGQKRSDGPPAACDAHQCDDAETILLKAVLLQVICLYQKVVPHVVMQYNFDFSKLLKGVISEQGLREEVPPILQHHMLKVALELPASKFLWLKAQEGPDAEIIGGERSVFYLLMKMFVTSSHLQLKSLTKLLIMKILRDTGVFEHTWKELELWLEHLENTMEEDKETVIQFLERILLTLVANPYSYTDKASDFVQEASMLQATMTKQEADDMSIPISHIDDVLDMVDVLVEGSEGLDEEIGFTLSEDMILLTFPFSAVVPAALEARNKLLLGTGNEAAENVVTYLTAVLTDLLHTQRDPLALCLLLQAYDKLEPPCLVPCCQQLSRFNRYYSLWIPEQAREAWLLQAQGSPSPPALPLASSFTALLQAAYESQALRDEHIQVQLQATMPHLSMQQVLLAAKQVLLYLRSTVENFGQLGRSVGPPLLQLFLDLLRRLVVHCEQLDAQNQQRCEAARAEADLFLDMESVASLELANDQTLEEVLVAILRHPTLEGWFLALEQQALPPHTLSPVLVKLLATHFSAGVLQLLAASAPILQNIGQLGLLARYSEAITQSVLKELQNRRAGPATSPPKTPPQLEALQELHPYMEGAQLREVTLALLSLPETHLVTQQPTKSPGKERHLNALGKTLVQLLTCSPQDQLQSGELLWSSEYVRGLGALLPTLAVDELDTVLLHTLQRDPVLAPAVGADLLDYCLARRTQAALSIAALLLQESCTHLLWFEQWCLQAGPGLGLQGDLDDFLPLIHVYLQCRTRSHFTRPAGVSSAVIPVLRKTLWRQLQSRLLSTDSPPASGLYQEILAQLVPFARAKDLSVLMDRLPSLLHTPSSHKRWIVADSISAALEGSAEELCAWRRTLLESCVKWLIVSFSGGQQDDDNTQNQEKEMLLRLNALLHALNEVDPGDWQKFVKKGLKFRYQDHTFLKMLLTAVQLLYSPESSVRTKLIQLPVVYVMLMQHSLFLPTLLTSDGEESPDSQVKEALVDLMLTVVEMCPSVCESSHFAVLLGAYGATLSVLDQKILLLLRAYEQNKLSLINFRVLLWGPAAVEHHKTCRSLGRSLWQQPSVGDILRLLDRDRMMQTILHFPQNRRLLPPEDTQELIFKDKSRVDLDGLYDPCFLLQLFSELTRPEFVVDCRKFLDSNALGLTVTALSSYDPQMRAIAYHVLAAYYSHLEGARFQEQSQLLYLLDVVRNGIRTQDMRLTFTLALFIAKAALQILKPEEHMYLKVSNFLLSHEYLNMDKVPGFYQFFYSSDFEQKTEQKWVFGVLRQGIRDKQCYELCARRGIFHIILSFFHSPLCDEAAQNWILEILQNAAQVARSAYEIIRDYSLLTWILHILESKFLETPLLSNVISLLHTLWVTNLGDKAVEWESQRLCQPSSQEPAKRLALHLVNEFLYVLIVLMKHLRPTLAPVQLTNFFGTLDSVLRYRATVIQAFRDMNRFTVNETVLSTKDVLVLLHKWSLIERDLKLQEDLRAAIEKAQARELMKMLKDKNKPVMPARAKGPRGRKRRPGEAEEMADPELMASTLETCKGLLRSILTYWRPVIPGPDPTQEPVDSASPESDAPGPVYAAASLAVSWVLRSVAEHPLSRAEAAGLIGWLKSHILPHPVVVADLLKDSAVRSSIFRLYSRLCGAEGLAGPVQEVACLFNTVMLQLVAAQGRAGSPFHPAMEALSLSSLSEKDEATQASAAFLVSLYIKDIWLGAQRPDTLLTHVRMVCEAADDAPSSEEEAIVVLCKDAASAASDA
UniProt O75446: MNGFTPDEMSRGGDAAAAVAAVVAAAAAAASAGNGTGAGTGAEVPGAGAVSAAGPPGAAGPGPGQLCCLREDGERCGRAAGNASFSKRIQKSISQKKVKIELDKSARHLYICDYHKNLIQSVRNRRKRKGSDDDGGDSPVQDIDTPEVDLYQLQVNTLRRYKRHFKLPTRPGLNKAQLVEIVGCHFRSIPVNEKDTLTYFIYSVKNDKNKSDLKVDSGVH
UniProt O75348, whole entry, looked up: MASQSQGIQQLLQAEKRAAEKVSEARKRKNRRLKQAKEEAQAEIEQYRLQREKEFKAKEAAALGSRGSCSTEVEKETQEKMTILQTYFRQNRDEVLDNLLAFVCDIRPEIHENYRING
UniProt O60216: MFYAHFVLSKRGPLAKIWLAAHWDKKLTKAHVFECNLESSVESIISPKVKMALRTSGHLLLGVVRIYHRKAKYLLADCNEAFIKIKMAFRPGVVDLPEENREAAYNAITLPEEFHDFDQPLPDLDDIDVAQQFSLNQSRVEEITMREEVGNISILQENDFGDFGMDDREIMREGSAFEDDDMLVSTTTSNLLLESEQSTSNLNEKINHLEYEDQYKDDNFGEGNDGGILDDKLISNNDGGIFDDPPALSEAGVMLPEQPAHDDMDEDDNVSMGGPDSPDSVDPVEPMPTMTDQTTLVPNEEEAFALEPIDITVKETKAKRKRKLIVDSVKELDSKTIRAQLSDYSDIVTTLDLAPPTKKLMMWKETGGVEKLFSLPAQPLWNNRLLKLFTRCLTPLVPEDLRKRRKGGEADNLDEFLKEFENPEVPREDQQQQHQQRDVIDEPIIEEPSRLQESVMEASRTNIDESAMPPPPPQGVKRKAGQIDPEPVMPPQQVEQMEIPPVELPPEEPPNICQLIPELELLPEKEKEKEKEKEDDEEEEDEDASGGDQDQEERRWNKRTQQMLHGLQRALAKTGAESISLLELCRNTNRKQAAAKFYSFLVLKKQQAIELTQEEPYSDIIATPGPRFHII
UniProt O43823: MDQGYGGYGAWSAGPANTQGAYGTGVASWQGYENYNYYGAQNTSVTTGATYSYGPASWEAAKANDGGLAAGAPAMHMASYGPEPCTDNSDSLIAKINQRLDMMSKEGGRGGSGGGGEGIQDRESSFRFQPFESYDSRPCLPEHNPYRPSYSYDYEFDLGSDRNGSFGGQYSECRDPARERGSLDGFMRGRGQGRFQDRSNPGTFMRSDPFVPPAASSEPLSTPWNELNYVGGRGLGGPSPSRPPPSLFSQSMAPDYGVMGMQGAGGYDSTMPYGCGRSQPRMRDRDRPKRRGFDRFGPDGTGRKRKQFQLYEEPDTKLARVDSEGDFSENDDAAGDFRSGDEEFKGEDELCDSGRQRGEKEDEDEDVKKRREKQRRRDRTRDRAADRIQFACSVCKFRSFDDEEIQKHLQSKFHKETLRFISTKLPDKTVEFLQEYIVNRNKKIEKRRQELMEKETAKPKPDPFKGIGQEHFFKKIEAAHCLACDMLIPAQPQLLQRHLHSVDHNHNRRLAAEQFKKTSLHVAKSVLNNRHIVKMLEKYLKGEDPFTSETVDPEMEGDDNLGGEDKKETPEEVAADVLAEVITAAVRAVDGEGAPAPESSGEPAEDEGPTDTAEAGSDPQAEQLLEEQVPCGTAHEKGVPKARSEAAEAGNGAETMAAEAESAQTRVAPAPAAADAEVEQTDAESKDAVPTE
UniProt O75347: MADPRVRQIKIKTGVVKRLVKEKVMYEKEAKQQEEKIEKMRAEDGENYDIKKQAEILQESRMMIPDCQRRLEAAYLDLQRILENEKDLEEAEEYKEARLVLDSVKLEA
UniProt O75947: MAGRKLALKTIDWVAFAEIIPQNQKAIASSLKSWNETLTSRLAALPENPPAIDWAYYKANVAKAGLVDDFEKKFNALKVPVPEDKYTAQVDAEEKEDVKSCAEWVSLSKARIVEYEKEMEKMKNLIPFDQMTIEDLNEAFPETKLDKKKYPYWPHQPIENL
UniProt O75385: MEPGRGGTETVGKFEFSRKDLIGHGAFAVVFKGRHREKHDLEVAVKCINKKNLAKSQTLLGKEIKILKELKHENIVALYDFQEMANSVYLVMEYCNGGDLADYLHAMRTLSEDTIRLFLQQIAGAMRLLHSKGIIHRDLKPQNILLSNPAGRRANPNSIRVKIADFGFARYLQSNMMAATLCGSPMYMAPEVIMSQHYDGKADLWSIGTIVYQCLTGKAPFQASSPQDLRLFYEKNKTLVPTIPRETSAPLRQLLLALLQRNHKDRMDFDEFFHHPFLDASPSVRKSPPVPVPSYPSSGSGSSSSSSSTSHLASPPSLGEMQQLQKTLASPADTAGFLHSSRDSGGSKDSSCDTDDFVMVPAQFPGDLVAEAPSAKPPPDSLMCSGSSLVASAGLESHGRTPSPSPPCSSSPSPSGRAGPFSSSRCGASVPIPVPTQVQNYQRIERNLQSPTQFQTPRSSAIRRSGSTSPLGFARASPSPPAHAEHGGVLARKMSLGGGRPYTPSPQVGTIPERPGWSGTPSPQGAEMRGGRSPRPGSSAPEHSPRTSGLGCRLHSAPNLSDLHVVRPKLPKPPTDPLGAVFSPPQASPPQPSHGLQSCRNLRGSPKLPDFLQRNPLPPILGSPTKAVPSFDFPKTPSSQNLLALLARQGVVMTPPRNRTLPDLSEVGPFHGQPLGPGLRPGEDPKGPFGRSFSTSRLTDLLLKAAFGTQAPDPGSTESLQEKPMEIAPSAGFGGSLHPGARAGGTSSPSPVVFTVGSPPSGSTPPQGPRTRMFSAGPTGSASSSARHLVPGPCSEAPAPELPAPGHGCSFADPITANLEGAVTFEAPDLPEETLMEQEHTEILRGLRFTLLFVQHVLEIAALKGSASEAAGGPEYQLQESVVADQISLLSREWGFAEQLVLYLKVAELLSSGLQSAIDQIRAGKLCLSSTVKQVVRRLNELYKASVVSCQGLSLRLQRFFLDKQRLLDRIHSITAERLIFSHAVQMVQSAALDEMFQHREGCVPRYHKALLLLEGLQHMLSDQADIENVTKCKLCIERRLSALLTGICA
UniProt O75663: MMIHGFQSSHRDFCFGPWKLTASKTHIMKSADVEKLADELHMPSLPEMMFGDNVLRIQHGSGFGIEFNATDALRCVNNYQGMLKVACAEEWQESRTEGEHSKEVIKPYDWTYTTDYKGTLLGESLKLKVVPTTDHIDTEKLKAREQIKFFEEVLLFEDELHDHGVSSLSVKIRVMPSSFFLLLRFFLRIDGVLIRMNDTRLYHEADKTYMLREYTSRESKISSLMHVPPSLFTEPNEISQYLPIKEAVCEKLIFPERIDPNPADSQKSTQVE
UniProt O75569: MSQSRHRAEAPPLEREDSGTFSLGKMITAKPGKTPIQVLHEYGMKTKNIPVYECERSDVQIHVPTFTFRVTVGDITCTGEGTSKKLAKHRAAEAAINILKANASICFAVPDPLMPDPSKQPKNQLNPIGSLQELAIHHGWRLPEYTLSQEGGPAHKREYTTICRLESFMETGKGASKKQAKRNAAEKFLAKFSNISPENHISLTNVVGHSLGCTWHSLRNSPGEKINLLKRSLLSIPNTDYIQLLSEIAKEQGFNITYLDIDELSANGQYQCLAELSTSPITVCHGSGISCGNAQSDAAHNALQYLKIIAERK
UniProt O43719: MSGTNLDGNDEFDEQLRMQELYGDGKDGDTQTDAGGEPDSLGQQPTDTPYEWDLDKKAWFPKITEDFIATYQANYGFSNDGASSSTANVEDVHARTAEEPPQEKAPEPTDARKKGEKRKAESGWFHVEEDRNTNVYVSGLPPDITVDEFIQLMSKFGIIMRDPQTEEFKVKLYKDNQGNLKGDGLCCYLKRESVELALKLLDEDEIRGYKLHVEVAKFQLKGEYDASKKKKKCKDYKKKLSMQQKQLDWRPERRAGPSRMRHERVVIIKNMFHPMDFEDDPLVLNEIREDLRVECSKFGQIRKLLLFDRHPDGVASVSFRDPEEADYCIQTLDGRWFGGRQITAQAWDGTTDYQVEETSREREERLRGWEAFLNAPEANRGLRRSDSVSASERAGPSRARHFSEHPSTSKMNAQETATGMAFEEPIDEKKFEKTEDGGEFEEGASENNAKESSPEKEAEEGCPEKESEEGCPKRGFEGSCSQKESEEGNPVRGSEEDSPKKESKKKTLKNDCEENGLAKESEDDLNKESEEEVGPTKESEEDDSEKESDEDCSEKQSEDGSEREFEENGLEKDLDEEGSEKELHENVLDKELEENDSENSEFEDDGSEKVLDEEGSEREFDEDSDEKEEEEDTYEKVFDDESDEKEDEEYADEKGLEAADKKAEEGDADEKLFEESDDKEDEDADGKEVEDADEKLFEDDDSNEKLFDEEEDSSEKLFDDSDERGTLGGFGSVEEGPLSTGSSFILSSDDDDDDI

log2 ratio of iodoacetamide-alkyne labeling, inactive:
URB1 C1163 (UniProt O60287) 0.114, TBC1D4 C45 (UniProt O60343) 0.216, UniProt O60610_C314 -0.564, ERAL1 C278 (UniProt O75616) 0.471, NUP155 C704 (UniProt O75694) 0.168, UniProt O60502_C896 0.404, GLRX3 C46 (UniProt O76003) -0.0384, SAP30 C184 (UniProt O75446) 0.513, ATP6V1G1 C104 (UniProt O75348) 0.03, RAD21 C585 (UniProt O60216) 0.0816, AKAP8 C173 (UniProt O43823) 0.65, GLRX3 C229 (UniProt O76003) 0.435, SNRNP200 C502 (UniProt O75643) 0.356, SRP72 C349 (UniProt O76094) -0.113, BUB1 C339 (UniProt O43683) 0.245, RECQL4 C511 (UniProt O94761) 0.0234, DKC1 C74 (UniProt O60832) 0.427, ZC3H11A C588 (UniProt O75152) 0.177, UniProt O75153_C1196 0.492, RNF40 C950 (UniProt O75150) 0.129, TBCA C67 (UniProt O75347) 0.0402, UniProt O75947_C101 0.98, MRPS14 C91 (UniProt O60783) 0.375, ROCK2 C804 (UniProt O75116) 0.197, UniProt O75153_C88 0.201, UniProt O60282_C393 0.179, UniProt O75934_C106 0.266, UniProt O75521_C282 0.0564, ULK1 C426 (UniProt O75385) 0.91, AKAP8 C85 (UniProt O43823) 0.633, UniProt O60664_C39 0.0449, NCOR1 C2322 (UniProt O75376) 0.378

log2 ratio of iodoacetamide-alkyne labeling, active:
TIPRL C87 (UniProt O75663) 1.32, PRKRA C106 (UniProt O75569) 1.07, RIPK2 C414 (UniProt O43353) 1.35, AKAP8 C275 (UniProt O43823) 1.06, HTATSF1 C471 (UniProt O43719) 1.14

— the supplement of paper PMC11006884
